In this assay the target is hSSB1, endogenous (human (endogenous in HeLa)) (UniProt Q9BQ15). Put plainly: proximity ligation.

Chains of the proteins cited; added tags and fusions are not shown.
UniProt Q9BQ15: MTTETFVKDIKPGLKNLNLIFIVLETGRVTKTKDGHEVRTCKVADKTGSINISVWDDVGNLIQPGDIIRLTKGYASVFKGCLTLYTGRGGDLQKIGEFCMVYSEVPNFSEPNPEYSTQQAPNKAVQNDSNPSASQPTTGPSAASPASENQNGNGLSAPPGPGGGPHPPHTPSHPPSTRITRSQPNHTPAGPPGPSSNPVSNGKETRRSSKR
UniProt P00519: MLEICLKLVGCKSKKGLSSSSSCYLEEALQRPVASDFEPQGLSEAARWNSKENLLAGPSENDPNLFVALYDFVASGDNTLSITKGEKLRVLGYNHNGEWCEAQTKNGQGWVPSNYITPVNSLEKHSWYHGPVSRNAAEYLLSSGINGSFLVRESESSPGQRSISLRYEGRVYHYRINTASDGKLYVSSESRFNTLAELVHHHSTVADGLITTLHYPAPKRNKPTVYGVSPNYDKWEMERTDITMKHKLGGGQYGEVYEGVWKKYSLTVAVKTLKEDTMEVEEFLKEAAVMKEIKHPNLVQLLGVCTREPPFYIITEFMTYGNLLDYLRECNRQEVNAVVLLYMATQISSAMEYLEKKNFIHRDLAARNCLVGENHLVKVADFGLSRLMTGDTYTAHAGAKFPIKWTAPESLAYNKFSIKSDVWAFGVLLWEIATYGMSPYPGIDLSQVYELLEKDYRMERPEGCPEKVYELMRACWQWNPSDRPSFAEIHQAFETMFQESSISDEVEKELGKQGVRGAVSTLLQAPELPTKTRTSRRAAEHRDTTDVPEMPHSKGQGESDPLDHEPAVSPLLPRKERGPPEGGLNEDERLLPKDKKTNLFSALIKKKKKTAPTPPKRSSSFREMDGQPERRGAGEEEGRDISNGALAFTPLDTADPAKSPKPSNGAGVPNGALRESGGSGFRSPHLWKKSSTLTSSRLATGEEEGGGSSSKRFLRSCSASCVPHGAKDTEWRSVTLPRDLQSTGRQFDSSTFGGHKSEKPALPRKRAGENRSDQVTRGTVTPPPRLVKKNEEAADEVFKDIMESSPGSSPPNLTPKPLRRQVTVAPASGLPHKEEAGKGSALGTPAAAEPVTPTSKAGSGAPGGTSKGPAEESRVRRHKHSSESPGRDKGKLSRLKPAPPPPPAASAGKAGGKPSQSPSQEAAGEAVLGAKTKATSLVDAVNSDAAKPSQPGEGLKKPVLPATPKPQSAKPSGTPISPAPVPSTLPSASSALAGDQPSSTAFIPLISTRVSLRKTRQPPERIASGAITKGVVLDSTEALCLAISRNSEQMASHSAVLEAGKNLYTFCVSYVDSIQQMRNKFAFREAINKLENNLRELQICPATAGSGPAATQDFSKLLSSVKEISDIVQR

These are yes or no findings as the source states them, for the method shown. In cells and extracts the contact can be indirect. Some results given as binding are weak or reduced against the parent protein; the word gives no strength.

For “Abelson tyrosine kinase c-Abl, endogenous (from UniProt P00519 1-1130) (enzyme)”, the binding result was “binds”.
As to “phosphorylated c-Abl (p-c-Abl), endogenous (from UniProt P00519 1-1130) (enzyme)”, the binding result was “binds”.

(Values after doi:10.1101/2023.05.10.540130.)
